Laboratory results: PubChem BioAssay AID2685 (National Center for Advancing Translational Sciences (NCATS), 2010)
Values joined by “and” are separate entries in the source; they are usually repeats but may differ in a detail not shown here. Equal values may be shown once. Some of the results follow. The main result of the screen is listed elsewhere. These columns were measured beside it and carry no call. Most of these compounds were active or inconclusive in the main read-out, so they are no random draw. Potencies come from curve fits of mixed quality, noted in brackets. Where a SMILES comes first, the peptide text is derived from it. [ ]: non-standard residue; d: D form. The star is where a group is joined. ξ: configuration not given here. Cbz = O=C(OCc1ccccc1)*; OBn = c1ccc(CO*)cc1; ξP = O=C(O)C1CCCN1

Assay: qHTS Assay for Lipid Storage Modulators in Drosophila S3 Cells;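 as to cell number change: cells counted by Cell Tracker Red CMTPX staining in the red channel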
Details: BODIPY lipid droplet fluorescence, 18-24 h; for cell number change: measured here: cell count max response, cells fed with added oleic acid
Method in brief: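 Drosophila S3 cells got compounds at several concentrations plus oleic acid (400 uM solution). Laser-scanning cytometry with 488 nm excitation read lipid droplets at 500-530 nm and cells at 575-640 nm. Percent activity was relative to 20 uM Triacsin C.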

[1] = measured here: lipid fluorescence (Fed channel) AC50, cells fed with added oleic acid
[2] = measured here: cell number channel AC50, cells fed with added oleic acid

| SMILES | cell number change | AC50 [1] | AC50 [2] |
| --- | --- | --- | --- |
| CCOc1cccc(OCCOCCN(C)Cc2ccccc2)c1 | -22.8% | 29.1 µM [falling, single point] |  |
| O=C(CSc1nnnn1-c1ccc2c(c1)OCCO2)c1cccc2c1OCCO2 | 2.31% | 18.4 µM [falling, single point] |  |
| COc1c(N2CCN(C(=S)NC3CC4CCC3C4)C(C)C2)c(F)cc2c(=O)c(C(=O)O)cn(C3CC3)c12 (stereo not drawn) | -10.5% | 1.16 µM [falling, full curve] |  |
| O=C(O)c1ccc(Cl)c(S(=O)(=O)Nc2ccccc2N2CCOCC2)c1 | 28.1% | 4.11 µM [rising, full curve] | 4.61 µM [rising, full curve, poor fit] |
| COc1ccc2c(c1)OC[C@H]1[C@H]2N2C(=O)CN(CCc3c[nH]c4ccccc34)C(=O)[C@@]2(C)[C@H]1c1ccccc1 | -9.64% | 29.1 µM [falling, single point] |  |
| O=C1c2cccc3cccc(c23)C(=O)N1Cc1cccnc1 | 17.4% |  |  |
| CCC1(C)Cc2c(sc3nc4n(c(=O)c23)CCS4)CO1 (stereo not drawn) | -2.03% |  | 0.651 µM [falling, single point] |
| CSCCC(NC(=O)c1ccc(Cl)cc1Cl)C(=O)NNC(=O)c1ccncc1 (stereo not drawn) | -8.76% | 1.64 µM [falling, partial curve] | 1.46 µM [falling, partial curve] |
| COCCn1c(CN2CCN(C)CC2)nc2c1c(=O)n(C)c(=O)n2C | -15.4% |  |  |
| Cc1noc(C)c1S(=O)(=O)N1CCC(C(=O)N(C)Cc2ccccc2)CC1 | 14.4% | 16.4 µM [falling, single point] |  |
| CNC(=O)CN(C)S(=O)(=O)c1ccc(F)cc1 |  | 23.1 µM [falling, partial curve] |  |
| Cc1ccc(/C=N\NC(=O)c2cncc(Br)c2)o1 | 14.9% | 10.3 µM [rising, partial curve] |  |
| O=C(Nc1ccc(NC(=O)c2cccs2)cn1)c1ccco1 | -19.8% |  |  |
| Cc1nc(N2CCN(c3ccc(Cl)cc3)CC2)[nH]c(=O)c1C | 33.4% |  |  |
| O=C(NC1CCCCC1)C(c1ccncc1)N(C(=O)Cn1nnc(-c2cccs2)n1)C1CCCC1 (stereo not drawn) | 14.3% | 2.59 µM [rising, full curve, poor fit] |  |
| COCCCN1C(=O)c2ccc(C(=O)OCC(=O)N3CCN(c4ccccc4)CC3)cc2C1=O |  | 29.1 µM [rising, single point] |  |
| COc1ccc(/C=C(/C(=O)NCc2ccccc2)c2ccccc2)cc1 | 3.33% | 29.1 µM [falling, single point] |  |
| C/C(=N\OC(=O)NC1CCCCC1)c1sc(-c2ccccc2)nc1C | -6% | 1.16 µM [falling, full curve] | 1.16 µM [falling, full curve] |
| COc1ccc(NC(=O)C2CCCCN2S(=O)(=O)c2ccc(F)cc2)cc1 (stereo not drawn) | 32.4% | 2.91 µM [rising, single point] | 2.06 µM [rising, full curve] |

Entries of single compounds, looked up by structure.
O=C(NC1CCCCC1)C(c1ccncc1)N(C(=O)Cn1nnc(-c2cccs2)n1)C1CCCC1 (stereo not drawn) as listed: cell number change: 14.3%; AC50 [1]: 2.59 µM [rising, full curve, poor fit]
COc1c(N2CCN(C(=S)NC3CC4CCC3C4)C(C)C2)c(F)cc2c(=O)c(C(=O)O)cn(C3CC3)c12 (stereo not drawn) as listed: cell number change: -10.5%; AC50 [1]: 1.16 µM [falling, full curve]

Later entries:

| SMILES | cell number change | AC50 [1] | AC50 [2] |
| --- | --- | --- | --- |
| O=C(CNC(=O)OCc1ccccc1)NCC(=O)N1CCCC1C(=O)OCc1ccccc1 (stereo not drawn) (Cbz-Gly-Gly-[ξP]-OBn) | -21.3% |  |  |
| O=C(O)c1ccc(N/N=C/c2ccc(C(F)(F)F)cc2)cc1 | 30.6% | 4.61 µM [rising, full curve] | 2.59 µM [rising, full curve, poor fit] |
| COc1ccc(OC(=O)c2ccc(OC)c(S(=O)(=O)N3CCOCC3)c2)cc1 | 26.9% | 23.1 µM [rising, single point] |  |
| CC1(C(=O)NCc2ccccc2)Oc2ccccc2NC1=O (stereo not drawn) |  | 18.4 µM [falling, partial curve] |  |
| Cc1nc2ccc3[nH]snc3c2n1 | 18.5% |  |  |
| CC(C)NS(=O)(=O)c1ccc(NC(=S)NC(=O)c2cccc([N+](=O)[O-])c2)cc1 | -16.8% | 18.4 µM [falling, partial curve, poor fit] |  |
| Cc1cccc(Oc2cc(NC(=O)Cn3cnc([N+](=O)[O-])n3)cc([N+](=O)[O-])c2)c1 | 5.07% | 0.146 µM [rising, full curve] |  |
| CC1CN(C(=O)COC(=O)c2ccc(Cl)c(S(=O)(=O)N3CCCCC3)c2)CC(C)O1 (stereo not drawn) |  |  | 6.51 µM [falling, single point] |
| O=C(COc1ccc(S(=O)(=O)N2CCOCC2)cc1Cl)NC1CCCCC1 | -44.1% | 1.16 µM [falling, full curve] | 9.2 µM [falling, partial curve, poor fit] |
| CCN(CC)CCOc1ccc(/C(=C(/Cl)c2ccccc2)c2ccccc2)cc1 | -55.8% and -20.8% | 29.1 µM [falling, single point] | 7.31 µM [falling, partial curve, poor fit] |
| C=CCNC(=S)N/N=C(\C)c1cccc(NC(C)=O)c1 |  | 0.259 µM [rising, partial curve] | 0.164 µM [rising, partial curve] |
| CCN1C(=O)/C(=C/C=C2/Sc3ccc4ccccc4c3N2CCO)SC1=S | 0.862% |  |  |
| Cc1ccc(NC(=O)c2cc(NC(=O)c3ccco3)ccc2N2CCOCC2)cc1 | -9.18% | 0.651 µM [rising, full curve] |  |
| COC(=O)c1ccc([N+](=O)[O-])cc1N1C(=O)C2C3CCC(C3)C2C1=O (stereo not drawn) | -2.29% |  |  |
| Cc1cccn2cc(-c3cccc(NC(=O)c4cccs4)c3)nc12 | -38.3% | 16.4 µM [falling, single point] | 18.4 µM [falling, single point] |
| Cc1nn(C(C)C(=O)N2CCc3ccccc3C2)c(=O)c2cc3occc3n12 (stereo not drawn) | -31.2% | 1.03 µM [falling, full curve, poor fit] |  |
| Cc1cccc(CSc2nc3nc(C)cc(C)n3n2)c1 | 13.6% | 2.59 µM [rising, full curve] |  |
| CC(C)(C)n1nnnc1C(c1cccs1)N(Cc1ccc(Cl)cc1)CC1CCCO1 (stereo not drawn) | -27.2% | 2.31 µM [falling, full curve, poor fit] |  |
| CC(C)Cc1nc2n[nH]c(N)c2c2c1CCCC2 | 57.7% | 2.59 µM [rising, single point] | 29.1 µM [rising, single point] |
